This assay addresses FLAG-V5-tagged FBXW7α, wild type (human), Q969H0. In words: co-IP; HEK293T cells co-transfected with tagged constructs; benzonase lysis buffer, KCl to 450 mM then diluted to 150 mM; anti-FLAG M2 magnetic beads 2 h; five washes with 100 mM KCl at 4°C; immunoblot for tagged or indicated proteins. To be noted: remark: other sources report otherwise. (In western blotting, separated proteins are transferred to a membrane and probed.)

Results are given in words; binding and its absence hold for the method and conditions named. In cells and extracts the contact can be indirect. Some binding calls cover weakened binding; strength is not graded here. Sequences can lack the tags named with a protein.

B1: Myc-tagged LEF1, Q9UJU2 1-399 (protein)
chain: MPQLSGGGGGGGGDPELCATDEMIPFKDEGDPQKEKIFAEISHPEEEGDLADIKSSLVNESEIIPASNGHEVARQAQTSQEPYHDKAREHPDDGKHPDGGLYNKGPSYSSYSGYIMMPNMNNDPYMSNGSLSPPIPRTSNKVPVVQPSHAVHPLTPLITYSDEHFSPGSHPSHIPSDVNSKQGMSRHPPAPDIPTFYPLSPGGVGQITPPLGWQGQPVYPITGGFRQPYPSSLSVDTSMSRFSHHMIPGPPGPHTTGIPHPAIVTPQVKQEHPHTDSDLMHVKPQHEQRKEQEPKRPHIKKPLNAFMLYMKEMRANVVAECTLKESAAINQILGRRWHALSREEQAKYYELARKERQLHMQLYPGWSARDNYGKKKKRKREKLQESASGTGPRMTAAYI
For B1, the binding entry is “binds”.

For the origin of these results see PMC10565641.
